The chains behind the UniProt entries cited, without tags or fusion partners. Where a name states a change or a piece, a line headed by the entry shows the natural chain unless it says otherwise.
UniProt Q96QU6: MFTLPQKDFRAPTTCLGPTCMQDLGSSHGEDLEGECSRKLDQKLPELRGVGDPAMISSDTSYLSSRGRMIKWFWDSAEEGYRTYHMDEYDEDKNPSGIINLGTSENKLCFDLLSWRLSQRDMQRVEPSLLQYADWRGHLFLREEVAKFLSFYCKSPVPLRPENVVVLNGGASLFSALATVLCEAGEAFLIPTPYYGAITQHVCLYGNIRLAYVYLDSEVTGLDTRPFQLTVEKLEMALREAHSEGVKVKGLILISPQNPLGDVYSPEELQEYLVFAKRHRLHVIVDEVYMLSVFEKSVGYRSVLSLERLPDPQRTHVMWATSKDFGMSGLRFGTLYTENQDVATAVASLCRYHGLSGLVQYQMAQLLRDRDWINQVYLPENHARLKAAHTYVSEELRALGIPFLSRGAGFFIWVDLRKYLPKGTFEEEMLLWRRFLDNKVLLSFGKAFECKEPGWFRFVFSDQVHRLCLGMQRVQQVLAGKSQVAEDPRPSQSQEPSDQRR
UniProt P00519, whole entry, looked up: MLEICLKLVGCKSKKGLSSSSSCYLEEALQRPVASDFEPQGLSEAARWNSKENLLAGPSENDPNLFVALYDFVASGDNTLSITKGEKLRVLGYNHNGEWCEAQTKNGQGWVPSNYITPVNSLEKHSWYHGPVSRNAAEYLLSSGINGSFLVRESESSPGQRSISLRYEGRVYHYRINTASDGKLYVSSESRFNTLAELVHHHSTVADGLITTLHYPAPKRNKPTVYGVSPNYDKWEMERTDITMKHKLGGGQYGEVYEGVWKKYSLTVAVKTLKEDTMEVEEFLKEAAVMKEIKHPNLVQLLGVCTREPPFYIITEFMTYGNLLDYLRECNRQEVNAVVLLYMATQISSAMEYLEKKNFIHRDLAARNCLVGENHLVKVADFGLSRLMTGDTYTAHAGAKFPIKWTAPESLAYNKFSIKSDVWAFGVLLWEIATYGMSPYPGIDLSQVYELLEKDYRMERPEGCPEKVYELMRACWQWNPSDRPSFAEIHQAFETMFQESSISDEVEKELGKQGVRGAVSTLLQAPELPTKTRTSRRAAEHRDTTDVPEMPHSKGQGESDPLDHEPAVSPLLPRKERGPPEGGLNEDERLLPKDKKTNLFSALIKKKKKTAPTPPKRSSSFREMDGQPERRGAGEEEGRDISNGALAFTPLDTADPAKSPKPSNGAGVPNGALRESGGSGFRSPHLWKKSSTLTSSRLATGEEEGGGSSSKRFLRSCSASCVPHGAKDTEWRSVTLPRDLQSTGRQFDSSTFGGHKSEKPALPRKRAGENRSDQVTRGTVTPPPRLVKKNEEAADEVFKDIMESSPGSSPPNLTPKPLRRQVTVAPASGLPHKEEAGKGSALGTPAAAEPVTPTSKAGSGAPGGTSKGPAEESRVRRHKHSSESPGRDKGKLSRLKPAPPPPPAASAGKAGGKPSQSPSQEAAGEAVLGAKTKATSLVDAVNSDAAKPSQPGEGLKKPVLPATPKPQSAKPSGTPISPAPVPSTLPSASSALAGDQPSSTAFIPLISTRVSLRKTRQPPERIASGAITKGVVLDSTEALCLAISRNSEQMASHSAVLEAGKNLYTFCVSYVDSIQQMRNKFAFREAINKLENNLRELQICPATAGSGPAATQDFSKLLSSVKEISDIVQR
UniProt O75027: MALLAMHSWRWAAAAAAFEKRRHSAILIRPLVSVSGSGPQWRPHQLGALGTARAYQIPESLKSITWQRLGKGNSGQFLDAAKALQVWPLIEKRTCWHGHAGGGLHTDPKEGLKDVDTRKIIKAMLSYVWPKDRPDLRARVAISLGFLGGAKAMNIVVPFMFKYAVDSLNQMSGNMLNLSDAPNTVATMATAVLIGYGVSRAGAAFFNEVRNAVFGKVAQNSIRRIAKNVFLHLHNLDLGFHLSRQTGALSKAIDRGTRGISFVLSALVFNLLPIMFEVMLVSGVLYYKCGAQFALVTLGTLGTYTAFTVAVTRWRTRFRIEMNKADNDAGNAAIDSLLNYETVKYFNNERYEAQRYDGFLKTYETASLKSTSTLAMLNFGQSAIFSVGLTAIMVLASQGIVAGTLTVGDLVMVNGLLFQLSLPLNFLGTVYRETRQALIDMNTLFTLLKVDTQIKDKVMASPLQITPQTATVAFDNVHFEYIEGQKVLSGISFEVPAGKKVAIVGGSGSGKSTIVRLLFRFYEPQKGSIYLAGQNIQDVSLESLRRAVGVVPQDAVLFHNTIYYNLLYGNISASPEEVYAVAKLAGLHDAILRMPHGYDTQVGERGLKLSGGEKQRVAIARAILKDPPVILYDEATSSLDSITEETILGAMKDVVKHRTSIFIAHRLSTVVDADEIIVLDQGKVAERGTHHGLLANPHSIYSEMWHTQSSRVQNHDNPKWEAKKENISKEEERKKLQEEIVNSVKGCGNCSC
UniProt P28288: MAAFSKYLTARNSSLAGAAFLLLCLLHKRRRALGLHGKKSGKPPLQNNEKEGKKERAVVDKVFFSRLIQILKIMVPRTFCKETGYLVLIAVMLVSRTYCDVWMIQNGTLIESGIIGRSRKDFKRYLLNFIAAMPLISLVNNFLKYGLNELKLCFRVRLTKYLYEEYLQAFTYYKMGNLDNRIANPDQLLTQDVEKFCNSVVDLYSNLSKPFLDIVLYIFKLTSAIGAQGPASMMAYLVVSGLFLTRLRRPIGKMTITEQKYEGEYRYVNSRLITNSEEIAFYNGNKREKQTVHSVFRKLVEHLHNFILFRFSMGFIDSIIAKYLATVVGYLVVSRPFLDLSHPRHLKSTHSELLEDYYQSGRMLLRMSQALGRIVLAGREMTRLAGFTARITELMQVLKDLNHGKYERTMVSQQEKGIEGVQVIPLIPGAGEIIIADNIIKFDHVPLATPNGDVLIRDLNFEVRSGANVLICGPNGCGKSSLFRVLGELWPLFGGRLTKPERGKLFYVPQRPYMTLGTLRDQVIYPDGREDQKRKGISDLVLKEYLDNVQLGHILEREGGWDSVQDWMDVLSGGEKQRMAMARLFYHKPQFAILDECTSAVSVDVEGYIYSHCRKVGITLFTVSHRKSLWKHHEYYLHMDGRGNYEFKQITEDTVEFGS
UniProt P01023, whole entry, looked up: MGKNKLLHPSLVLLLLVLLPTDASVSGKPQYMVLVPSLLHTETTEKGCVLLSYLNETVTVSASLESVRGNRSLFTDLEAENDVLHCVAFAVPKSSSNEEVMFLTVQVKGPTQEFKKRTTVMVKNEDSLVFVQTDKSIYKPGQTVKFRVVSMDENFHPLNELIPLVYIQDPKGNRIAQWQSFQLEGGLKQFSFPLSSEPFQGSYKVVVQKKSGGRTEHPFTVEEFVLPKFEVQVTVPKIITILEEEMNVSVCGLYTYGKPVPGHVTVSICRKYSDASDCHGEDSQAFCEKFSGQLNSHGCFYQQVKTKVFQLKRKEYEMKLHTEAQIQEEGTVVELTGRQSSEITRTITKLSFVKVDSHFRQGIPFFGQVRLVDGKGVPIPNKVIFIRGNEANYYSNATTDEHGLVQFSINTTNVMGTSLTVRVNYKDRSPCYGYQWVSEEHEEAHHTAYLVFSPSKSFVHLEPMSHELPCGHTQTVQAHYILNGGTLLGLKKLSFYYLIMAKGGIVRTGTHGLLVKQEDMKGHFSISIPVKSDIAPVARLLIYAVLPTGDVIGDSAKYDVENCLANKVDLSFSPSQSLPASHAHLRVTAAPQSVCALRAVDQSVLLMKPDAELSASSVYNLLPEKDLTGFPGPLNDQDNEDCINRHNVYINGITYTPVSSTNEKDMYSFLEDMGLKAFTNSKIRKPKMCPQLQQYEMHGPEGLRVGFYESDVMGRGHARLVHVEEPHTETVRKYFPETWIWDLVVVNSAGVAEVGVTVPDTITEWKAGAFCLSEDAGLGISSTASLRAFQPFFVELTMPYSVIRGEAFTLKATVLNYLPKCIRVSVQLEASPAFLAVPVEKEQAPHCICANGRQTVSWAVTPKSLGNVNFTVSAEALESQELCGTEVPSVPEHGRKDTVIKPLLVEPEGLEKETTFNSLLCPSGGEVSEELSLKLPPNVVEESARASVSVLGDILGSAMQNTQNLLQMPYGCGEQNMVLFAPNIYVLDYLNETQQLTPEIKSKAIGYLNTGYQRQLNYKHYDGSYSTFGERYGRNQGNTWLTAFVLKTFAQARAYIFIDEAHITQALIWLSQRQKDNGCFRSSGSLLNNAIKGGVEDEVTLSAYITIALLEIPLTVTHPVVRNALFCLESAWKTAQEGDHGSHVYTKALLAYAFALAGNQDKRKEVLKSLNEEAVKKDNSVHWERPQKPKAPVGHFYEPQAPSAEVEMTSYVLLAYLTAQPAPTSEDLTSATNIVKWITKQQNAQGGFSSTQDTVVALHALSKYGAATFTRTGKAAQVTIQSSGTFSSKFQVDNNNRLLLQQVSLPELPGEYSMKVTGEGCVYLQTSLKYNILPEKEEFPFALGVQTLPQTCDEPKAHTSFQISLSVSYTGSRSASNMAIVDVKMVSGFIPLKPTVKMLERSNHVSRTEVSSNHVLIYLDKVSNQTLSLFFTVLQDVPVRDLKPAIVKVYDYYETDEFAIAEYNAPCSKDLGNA
UniProt Q6PD74: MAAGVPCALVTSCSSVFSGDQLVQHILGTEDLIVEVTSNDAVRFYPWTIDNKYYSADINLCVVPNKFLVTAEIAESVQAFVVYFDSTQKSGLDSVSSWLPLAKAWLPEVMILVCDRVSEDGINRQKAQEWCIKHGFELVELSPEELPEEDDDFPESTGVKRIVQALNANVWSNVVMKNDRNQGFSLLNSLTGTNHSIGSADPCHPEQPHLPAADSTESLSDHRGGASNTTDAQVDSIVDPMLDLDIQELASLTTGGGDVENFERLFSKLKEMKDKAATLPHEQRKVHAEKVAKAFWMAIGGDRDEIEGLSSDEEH
UniProt P16219: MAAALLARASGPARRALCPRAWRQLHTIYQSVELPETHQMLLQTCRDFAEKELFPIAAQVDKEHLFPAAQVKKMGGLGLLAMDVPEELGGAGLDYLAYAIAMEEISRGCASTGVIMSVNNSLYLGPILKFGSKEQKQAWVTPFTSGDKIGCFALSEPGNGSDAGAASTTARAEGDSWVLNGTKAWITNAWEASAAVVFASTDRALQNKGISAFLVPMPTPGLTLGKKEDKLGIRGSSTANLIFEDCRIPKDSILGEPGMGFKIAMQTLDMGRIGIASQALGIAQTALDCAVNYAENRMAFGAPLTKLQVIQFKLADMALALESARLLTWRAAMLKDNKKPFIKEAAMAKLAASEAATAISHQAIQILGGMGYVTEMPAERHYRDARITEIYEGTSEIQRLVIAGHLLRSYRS
UniProt Q9BR61: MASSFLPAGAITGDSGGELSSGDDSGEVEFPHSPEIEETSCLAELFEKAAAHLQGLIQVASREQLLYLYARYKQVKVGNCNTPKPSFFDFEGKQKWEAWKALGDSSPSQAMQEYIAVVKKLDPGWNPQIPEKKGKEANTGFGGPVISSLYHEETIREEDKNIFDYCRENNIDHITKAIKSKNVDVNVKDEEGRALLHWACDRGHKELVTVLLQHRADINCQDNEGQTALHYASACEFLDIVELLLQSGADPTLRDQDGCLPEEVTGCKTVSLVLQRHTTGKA
UniProt O95870: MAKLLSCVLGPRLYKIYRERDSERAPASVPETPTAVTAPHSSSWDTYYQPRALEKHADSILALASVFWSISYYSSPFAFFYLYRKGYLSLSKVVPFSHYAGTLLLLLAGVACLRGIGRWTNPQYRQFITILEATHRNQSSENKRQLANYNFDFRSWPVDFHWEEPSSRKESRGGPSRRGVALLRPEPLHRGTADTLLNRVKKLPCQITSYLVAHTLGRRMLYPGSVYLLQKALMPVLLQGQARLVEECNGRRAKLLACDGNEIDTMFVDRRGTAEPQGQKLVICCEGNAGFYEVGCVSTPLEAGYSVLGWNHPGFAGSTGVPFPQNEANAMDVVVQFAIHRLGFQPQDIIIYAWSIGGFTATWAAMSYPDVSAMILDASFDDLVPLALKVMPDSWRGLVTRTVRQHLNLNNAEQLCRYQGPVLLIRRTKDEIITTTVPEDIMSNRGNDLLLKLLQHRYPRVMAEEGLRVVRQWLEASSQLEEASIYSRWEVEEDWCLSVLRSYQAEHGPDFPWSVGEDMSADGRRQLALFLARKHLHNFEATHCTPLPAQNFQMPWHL
UniProt Q9BTE6: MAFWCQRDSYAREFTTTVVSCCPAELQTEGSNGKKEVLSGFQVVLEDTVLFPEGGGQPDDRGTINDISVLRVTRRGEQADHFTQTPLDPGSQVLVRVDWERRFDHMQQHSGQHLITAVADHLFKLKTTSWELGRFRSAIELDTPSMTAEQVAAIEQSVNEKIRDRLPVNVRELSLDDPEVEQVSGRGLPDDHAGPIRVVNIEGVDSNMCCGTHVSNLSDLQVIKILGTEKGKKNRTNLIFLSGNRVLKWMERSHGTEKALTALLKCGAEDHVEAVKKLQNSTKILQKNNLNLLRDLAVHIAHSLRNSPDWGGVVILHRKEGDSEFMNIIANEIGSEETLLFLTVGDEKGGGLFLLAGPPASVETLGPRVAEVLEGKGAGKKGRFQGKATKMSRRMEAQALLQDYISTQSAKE

The list shows a part of the results.
The targets below were run with CC1=CC=C(C=C1)SC2=C3C=C(SC3=CN=C2)C(=O)N (assay: log2 fold change, soluble protein after heating vs DMSO (PISA); higher = thermal stabilisation; K562 lysate, 10 uM; active = over 0.2 and 3.5 SD of the protein, either way, in both replicates (recomputed)).
In short: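 Quantification was by TMTpro 16plex LC-MS/MS with equalised channel sums, applied to the supernatant after 21,000xg for 90 min. Samples were crude K562 extract at 1 mg/mL protein in PBS pH 7.4 with 1 mM MgCl2, treated with 10 μM compound for 30 min, heated for 3 min across 48°C-58°C, pooled and brought to 0.5% NP-40 at 4°C. Values are log-two fold changes in thermal stability relative to solvent controls, from duplicates.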
For AAK1, A0A096LP25, the log2 fold change was inactive: 0.045.
With AAMDC (UniProt Q9H7C9) the log2 fold change was inactive: -0.014.
ACIN1 (UniProt E7EQT4) was tested, and the log2 fold change was inactive: -0.002.
ACCS (UniProt Q96QU6) was tested, and the log2 fold change was inactive: -0.041.
In the case of A0A0B4J2A0, A0A0B4J2A0, the log2 fold change is reported as inactive: -0.004.
In the case of ABL1 isoform 2 (UniProt P00519), the log2 fold change is reported as inactive: -0.043.
With ABITRAM (UniProt Q9NX38) the log2 fold change was inactive: -0.096.
In the case of AACS (UniProt Q86V21), the log2 fold change is reported as inactive: 0.008.
ABCF2 isoform 2 (UniProt Q9UG63) was tested, and the log2 fold change was inactive: 0.012.
For ACACA isoform 4 (UniProt Q13085), the log2 fold change was inactive: 0.035.
In the case of ABCB7 isoform 2 (UniProt O75027), the log2 fold change is reported as inactive: 0.006.
In the case of ACADVL isoform 3 (UniProt P49748), the log2 fold change is reported as inactive: 0.007.
For ABCC4 (UniProt O15439), the log2 fold change was inactive: -0.023.
In the case of ABCD3 (UniProt P28288), the log2 fold change is reported as inactive: -0.031.
In the case of ABRAXAS2 (UniProt Q15018), the log2 fold change is reported as inactive: 0.029.
For ACBD3 (UniProt Q9H3P7), the log2 fold change was inactive: -0.019.
ACIN1 isoform 5 (UniProt Q9UKV3) was tested, and the log2 fold change was inactive: -0.016.
For A2M (UniProt P01023), the log2 fold change was inactive: -0.022.
With AARS (UniProt P49588) the log2 fold change was inactive: 0.017.
With ABI1 isoform 9 (UniProt Q8IZP0) the log2 fold change was inactive: 0.003.
AATF (UniProt Q9NY61) was tested, and the log2 fold change was inactive: -0.058.
AAGAB (UniProt Q6PD74) was tested, and the log2 fold change was inactive: -0.017.
For A0A096LPI6, A0A096LPI6, the log2 fold change was inactive: -0.019.
In the case of ABCB10 (UniProt Q9NRK6), the log2 fold change is reported as inactive: 0.005.
In the case of ABHD10 (UniProt Q9NUJ1), the log2 fold change is reported as inactive: 0.006.
For ABHD17A isoform 2 (UniProt Q96GS6), the log2 fold change was inactive: -0.098.
In the case of ABT1 (UniProt Q9ULW3), the log2 fold change is reported as inactive: 0.088.
ACO1 (UniProt P21399) was tested, and the log2 fold change was inactive: 0.003.
ACADS (UniProt P16219) was tested, and the log2 fold change was inactive: 0.018.
ACBD6 (UniProt Q9BR61) was tested, and the log2 fold change was inactive: -0.057.
For ABCF1 (UniProt Q8NE71), the log2 fold change was inactive: 0.023.
ABHD16A (UniProt O95870) was tested, and the log2 fold change was inactive: -0.011.
In the case of AARSD1 isoform 3 (UniProt Q9BTE6), the log2 fold change is reported as inactive: -0.006.

— the supplement of paper PMC10849652
